Results deposited as PubChem BioAssay AID1508597 (Cure First, 2020)
Shown is an unselected part of the about 2,100 reagents, under one of the conditions tested. 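Calls flag viability under 80% in either arm, not effects specific to rucaparib; the reference for percent is not stated.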 A number with no mark means an inactive call. Some reagents were tested in more than one well and are listed for each. The record does not give: the 100% reference.

Test: 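Survival screen with siRNA in ovarian cancer cells derived from patients, with or without rucaparib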 (primary screen)
System: human ovarian carcinoma lines grown from tumours: OCI-P5x (papillary serous) and OCI-C5x (clear cell)
Reagent: siRNA pool against human genes, 1.25 pmol siRNA per well
Duration: 72 h or 96 h, depending on the cell culture
Challenge: rucaparib 20 µM (about IC30) or vehicle, present until read-out
Rucaparib or vehicle: Vehicle
Cell line: OCI-P5x (serous)
Read-out: 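Luminescent ATP-based viability assay read 72 or 96 h after transfection, depending on culture, given as normalised percent viability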
Reading the numbers: viability, normalised: higher = more viable cells remaining
Active means: 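a well counts as a hit if its normalised viability is under 80 percent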
Calls: active = viability under 80%; inactive = viability 80% or more

gene knocked down	technical replicate	viability, normalised (%)
SMARCA4	1	59.7 (active)
SMARCA4	1	42.4 (active)
SMARCA4	2	49.9 (active)
SMARCA4	2	63.8 (active)
SMARCA4	3	61.5 (active)
SMARCA4	3	46.9 (active)
PRKG2	1	102
PRKG2	2	82.7
PRKG2	3	107

4 of these entries, set out differently.
gene knocked down,technical replicate,"viability, normalised (%)"
SMARCA4,2,49.9 (active)
SMARCA4,2,63.8 (active)
SMARCA4,3,61.5 (active)
SMARCA4,3,46.9 (active)

The list goes on.
gene knocked down	technical replicate	viability, normalised (%)
CBX5	1	74 (active)
CBX5	1	68.1 (active)
CBX5	2	69 (active)
CBX5	2	75.1 (active)
CBX5	3	96.7
CBX5	3	67 (active)
CSNK1A1	1	65.8 (active)
CSNK1A1	2	77.7 (active)
CSNK1A1	3	67.2 (active)
KAT8	1	42.6 (active)
KAT8	2	35.3 (active)
KAT8	3	62.8 (active)
RAD54B	1	55.2 (active)
RAD54B	1	77.8 (active)
RAD54B	2	76.6 (active)
RAD54B	2	63.1 (active)
RAD54B	3	73.7 (active)
RAD54B	3	83.8
